Experimental data taken from the supplement of paper PMC8728848.
The other results are listed elsewhere or left out.

What was measured:
Experiment in all cases: glycan array binding signal (z-score within array); higher = stronger binding
Conditions in all cases: glycan notation: IUPAC condensed, linker removed
[1] = biological target: Gal(a1-3)Gal(b1-3)GlcNAc
Summary of the method: (§1)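 The binding signal is a Z-score computed within each array and averaged over linkers. Arrays of the same protein sequence at different concentrations or buffers were also averaged together. Data originate from 3228 arrays in the Consortium for Functional Glycomics database, kept only where the protein sequence was available.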

[2] = biological target: Gal(a1-3)Gal(b1-3)GlcNAc(b1-2)Man
Summary of the method: as §1

[3] = biological target: Gal(a1-3)Gal(b1-3)GlcNAc(b1-2)Man(a1-3)[Gal(a1-3)Gal(b1-3)GlcNAc(b1-2)Man(a1-6)]Man(b1-4)GlcNAc(b1-4)GlcNAc
Summary of the method: as §1

[4] = biological target: Gal(a1-3)Gal(b1-3)GlcNAc(b1-3)GalNAc
Summary of the method: as §1

[5] = biological target: Gal(a1-3)Gal(b1-3)GlcNAc(b1-6)GalNAc
Summary of the method: as §1

[6] = biological target: Gal(a1-3)Gal(b1-3)[Fuc(a1-4)]GlcNAc(b1-2)Man(a1-3)[Gal(a1-3)Gal(b1-3)[Fuc(a1-4)]GlcNAc(b1-2)Man(a1-6)]Man(b1-4)GlcNAc(b1-4)GlcNAc
Summary of the method: as §1

[7] = biological target: Gal(a1-3)Gal(b1-4)Glc
Summary of the method: as §1

[8] = biological target: Gal(a1-3)Gal(b1-4)GlcNAc
Summary of the method: as §1

[9] = biological target: Gal(a1-3)Gal(b1-4)GlcNAc(b1-2)Man
Summary of the method: as §1

[10] = biological target: Gal(a1-3)Gal(b1-4)GlcNAc(b1-2)Man(a1-3)[Gal(a1-3)Gal(b1-4)GlcNAc(b1-2)Man(a1-6)]Man(b1-4)GlcNAc(b1-4)GlcNAc
Summary of the method: as §1

[11] = biological target: Gal(a1-3)Gal(b1-4)GlcNAc(b1-3)GalNAc
Summary of the method: as §1

[12] = biological target: Gal(a1-3)Gal(b1-4)GlcNAc(b1-6)GalNAc
Summary of the method: as §1

[13] = biological target: Gal(a1-3)Gal(b1-4)[Fuc(a1-3)]GlcNAc
Summary of the method: as §1

[14] = biological target: Gal(a1-3)Gal(b1-4)[Fuc(a1-3)]GlcNAc(b1-2)Man(a1-3)[Gal(a1-3)Gal(b1-4)[Fuc(a1-3)]GlcNAc(b1-2)Man(a1-6)]Man(b1-4)GlcNAc(b1-4)GlcNAc
Summary of the method: as §1

[15] = biological target: Gal(a1-3)GalNAc
Summary of the method: as §1

[16] = biological target: Gal(a1-3)[Gal(a1-4)]Gal(b1-4)GlcNAc
Summary of the method: as §1

[17] = biological target: Gal(a1-4)Gal(b1-3)GlcNAc(b1-2)Man(a1-3)[Gal(a1-4)Gal(b1-3)GlcNAc(b1-2)Man(a1-6)]Man(b1-4)GlcNAc(b1-4)GlcNAc
Summary of the method: as §1

[18] = biological target: Gal(a1-4)Gal(b1-4)Glc
Summary of the method: as §1

[19] = biological target: Gal(a1-4)Gal(b1-4)GlcNAc
Summary of the method: as §1

[20] = biological target: Gal(a1-4)Gal(b1-4)GlcNAc(b1-2)Man(a1-3)[Gal(a1-4)Gal(b1-4)GlcNAc(b1-2)Man(a1-6)]Man(b1-4)GlcNAc(b1-4)GlcNAc
Summary of the method: as §1

[21] = biological target: Gal(a1-4)Gal(b1-4)GlcNAc(b1-3)Gal(b1-4)Glc
Summary of the method: as §1

[22] = biological target: Gal(a1-4)GlcNAc
Summary of the method: as §1

[23] = biological target: Gal(a1-6)Glc
Summary of the method: as §1

[24] = biological target: Gal(b1-2)Gal
Summary of the method: as §1

[25] = biological target: Gal(b1-3)Gal
Summary of the method: as §1

[26] = biological target: Gal(b1-3)Gal(b1-4)GlcNAc
Summary of the method: as §1

[27] = biological target: Gal(b1-3)GalNAc
Summary of the method: as §1

[28] = biological target: Gal(b1-3)GalNAc(a1-3)[Fuc(a1-2)]Gal(b1-4)Glc
Summary of the method: as §1

[29] = biological target: Gal(b1-3)GalNAc(a1-3)[Fuc(a1-2)]Gal(b1-4)GlcNAc
Summary of the method: as §1

[30] = biological target: Gal(b1-3)GalNAc(b1-3)Gal
Summary of the method: as §1

[31] = biological target: Gal(b1-3)GalNAc(b1-3)Gal(a1-4)Gal(b1-4)Glc
Summary of the method: as §1

[32] = biological target: Gal(b1-3)GalNAc(b1-4)Gal(b1-4)Glc
Summary of the method: as §1

[33] = biological target: Gal(b1-3)GalNAc(b1-4)[Neu5Ac(a2-3)]Gal(b1-4)Glc
Summary of the method: as §1

[34] = biological target: Gal(b1-3)GlcNAc
Summary of the method: as §1

[35] = biological target: Gal(b1-3)GlcNAc(a1-3)Gal(b1-4)GlcNAc
Summary of the method: as §1

[36] = biological target: Gal(b1-3)GlcNAc(a1-6)Gal(b1-4)GlcNAc
Summary of the method: as §1

[37] = biological target: Gal(b1-3)GlcNAc(b1-2)Man
Summary of the method: as §1

[38] = biological target: Gal(b1-3)GlcNAc(b1-2)Man(a1-3)[Gal(b1-3)GlcNAc(b1-2)Man(a1-6)]Man(b1-4)GlcNAc(b1-4)GlcNAc
Summary of the method: as §1

B1: truncCC1G-10077 (Coprinopsis cinerea) (protein)
chain: MHHHHHHHHPLPSPGPGWVLIQNGGTGKFLCSTPSGDIGTADGPETVYDYSVQWRFIQREYTGVYHVVNRATGAYLRQIGTSMPSIGLAEENDDELKDWWMLETYDNSEIGLASIISRWTGNVLDHYGGVSVQALDNNTENSYRSWAIIPARDWLTSFSLVNGQGGLCLAAQYAREETRLSTTANVNDFHAQWVFRKPSGSSGYTIQNKYNNHYVGGTSARWELVVCCNKYFGIRNTSTQKYLAIEDGQVTFQDQDMTDRKQCWELCSGRATDTSGNDYDLIYMDDDLLEVMIPWVGDKQGDLKHYIEKRATKKPPKDKGGWQLPAAGLIKKPKFNDIRQLLQELIEQWEWDVVNEEREQIQTLVSIDEAEARRLLGRRPHPDIVAAYQRSRSSTLFRIDRQGYFNIAGDRYVNIQGQYGDDSYFHIALPVGVRFGREQIRRFLRDSLDRSTSVTITPTTCKPPSGGPDYNRDPDSDGDNSWIKWTIAVVGTSAIKHSEL
- glycan array binding signal (z-score) [1]: -1.09
- glycan array binding signal (z-score) [2]: -1.05
- glycan array binding signal (z-score) [3]: 1.97
- glycan array binding signal (z-score) [4]: 1.23
- glycan array binding signal (z-score) [5]: 0.981
- glycan array binding signal (z-score) [6]: 0.782
- glycan array binding signal (z-score) [7]: -0.412
- glycan array binding signal (z-score) [8]: -0.741
- glycan array binding signal (z-score) [9]: -0.428
- glycan array binding signal (z-score) [10]: 1.38
- glycan array binding signal (z-score) [11]: -0.235
- glycan array binding signal (z-score) [12]: -0.144
- glycan array binding signal (z-score) [13]: -0.868
- glycan array binding signal (z-score) [14]: 2.58
- glycan array binding signal (z-score) [15]: -0.615
- glycan array binding signal (z-score) [16]: 2.08
- glycan array binding signal (z-score) [17]: 1.86
- glycan array binding signal (z-score) [18]: 0.224
- glycan array binding signal (z-score) [19]: -0.463
- glycan array binding signal (z-score) [20]: 0.716
- glycan array binding signal (z-score) [21]: -0.848
- glycan array binding signal (z-score) [22]: -0.869
- glycan array binding signal (z-score) [23]: -0.488
- glycan array binding signal (z-score) [24]: -0.713
- glycan array binding signal (z-score) [25]: 0.191
- glycan array binding signal (z-score) [26]: -0.766
- glycan array binding signal (z-score) [27]: -0.815
- glycan array binding signal (z-score) [28]: -0.935
- glycan array binding signal (z-score) [29]: -1.05
- glycan array binding signal (z-score) [30]: 0.405
- glycan array binding signal (z-score) [31]: 0.462
- glycan array binding signal (z-score) [32]: -0.857
- glycan array binding signal (z-score) [33]: -0.719
- glycan array binding signal (z-score) [34]: -0.268
- glycan array binding signal (z-score) [35]: -1.53
- glycan array binding signal (z-score) [36]: -0.679
- glycan array binding signal (z-score) [37]: -0.446
- glycan array binding signal (z-score) [38]: 0.572
